What is called IC50 is the concentration at which inhibition is half-maximal. A low value points to greater potency.

The target in the experiment is Adenosine receptor A2a (Homo sapiens, UniProt P29274). In words: biochemical. It is filed as cell-based, CHO.

Some results are limits rather than exact numbers.

Compound `CCCCc1nc2ccccc2c2nc(-c3ccc(Br)cc3)nn12` yielded an IC50 above 10 µM.

These data come from ChEMBL document CHEMBL2177029, “Medicinal chemistry of A₃ adenosine receptor modulators: pharmacological activities and therapeutic implications” (J Med Chem, 2012).
